Reference: article doi:10.1101/2024.08.15.608058
Results are given in words; binding and its absence hold for the method and conditions named. In cells and extracts the contact can be indirect. These calls come from enrichment with a bait or labelling near it, and not all partners need be listed.

Amino acid sequences for entries named in this document (tags omitted).
UniProt Q5TEA3: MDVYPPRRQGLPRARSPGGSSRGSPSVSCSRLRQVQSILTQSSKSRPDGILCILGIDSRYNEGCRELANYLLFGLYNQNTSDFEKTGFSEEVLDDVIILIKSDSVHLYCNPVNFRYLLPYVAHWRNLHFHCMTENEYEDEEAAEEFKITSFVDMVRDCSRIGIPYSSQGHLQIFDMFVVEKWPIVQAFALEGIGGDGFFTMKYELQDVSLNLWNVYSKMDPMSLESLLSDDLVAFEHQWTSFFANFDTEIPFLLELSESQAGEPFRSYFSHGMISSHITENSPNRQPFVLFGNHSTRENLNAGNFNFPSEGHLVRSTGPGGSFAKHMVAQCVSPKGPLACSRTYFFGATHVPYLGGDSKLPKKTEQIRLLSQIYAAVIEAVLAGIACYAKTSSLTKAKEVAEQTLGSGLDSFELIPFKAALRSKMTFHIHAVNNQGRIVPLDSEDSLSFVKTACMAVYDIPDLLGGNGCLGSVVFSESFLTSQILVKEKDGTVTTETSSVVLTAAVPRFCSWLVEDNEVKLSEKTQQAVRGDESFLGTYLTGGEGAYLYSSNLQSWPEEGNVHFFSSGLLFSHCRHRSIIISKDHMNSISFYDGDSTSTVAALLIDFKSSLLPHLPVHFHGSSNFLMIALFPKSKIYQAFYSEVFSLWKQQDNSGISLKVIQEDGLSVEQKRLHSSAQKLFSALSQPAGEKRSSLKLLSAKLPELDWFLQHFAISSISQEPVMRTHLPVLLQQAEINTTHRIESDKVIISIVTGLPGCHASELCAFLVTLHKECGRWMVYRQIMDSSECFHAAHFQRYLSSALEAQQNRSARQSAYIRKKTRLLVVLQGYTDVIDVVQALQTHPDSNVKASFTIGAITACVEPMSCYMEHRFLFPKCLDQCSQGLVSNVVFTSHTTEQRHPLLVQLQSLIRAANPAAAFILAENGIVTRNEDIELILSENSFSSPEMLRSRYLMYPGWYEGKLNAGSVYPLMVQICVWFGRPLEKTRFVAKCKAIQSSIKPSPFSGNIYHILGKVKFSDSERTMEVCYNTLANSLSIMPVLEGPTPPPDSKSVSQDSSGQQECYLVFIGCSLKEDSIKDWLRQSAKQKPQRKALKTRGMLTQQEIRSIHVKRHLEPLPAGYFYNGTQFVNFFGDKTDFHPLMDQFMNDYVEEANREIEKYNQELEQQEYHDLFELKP

B1: C1ORF87 (protein, UniProt Q8N0U7 1-546)
chain: MSSAWKTPRGSDAMPEIMVKIIGSKHFQYLVEKPKIKENDSLKTETQTMHQKPMTDNARQMSRDTPVPINFTDQQTTDNPDDVKEKKHPENNQKSENNQKLLTGANSSRFLDGNIPSQANVHCSSVPTGDQSLSYVHGIPRRKLRDWSLEQMVRGSSDQPEDIGQSPSGTTNEDAFLLALVRRELKSRPLSSNLLEKLQKELKILDPISSGFLLQSQLSRLFLKHEVPLQLPTVKILCQRFSKRGSPEMVNYEKLLWFLNSAASDYPQQNKAAADLRKTESHGTHSQSTPPQHSSSQPEVNRSLLEILKMALRTTNGRLNIDNLNLSFRKEDRSFSGCLPLPKVRAICGKHGLYLTLSLLETLLNHQDLGYQNEIKWQNFVEMLTRASSDLLSDLPTGKNEKKAPAPPMEPEVPEMSQSKTEHMKTPEEELQPESSPAETSACKDPLKPLKIRPVSQPFVNPAVKNKAEECETWIDRFRKLENALYLCDLSNTGVLEKERARRLIHNYNLIYNLSLSPQKIDQALRRFRSGENMLLEPALRYLKEL
B2: CCDC17 (protein, UniProt Q96LX7 1-622)
chain: MDSHSGEPALLPCGTCDMVFRSSALLATHTQRFCIGHPTQEMTFGAQASVATEPQRAAVVPQEHQGVPQEPQGLPDQQASRSALKRLTEEVQWLRLSLQEMRPWITEVPRVFAGPWTRSEARPQSPMSEAVGSPSERLRALFRTRARRVAEMEAQSRALQLRGEELSRRLQVVACTRGGMSRLFGLEQEIRELQAEAGRTRGALEVLGARIQELQAEPGNPLSSRREAELYSPVQKANPGTLAAEIRALREAYIRDGGRDPGVLGQIWQLQVEASALELQRSQTRRGRAGATSGELPVVEAENRRLEAEILALQMQRGRAPLGPQDLRLLGDASLQPKGRRDPPLLPPPVAPPLPPLPGFSEPQLPGTMTRNLGLDSHFLLPTSDMLGPAPYDPGAGLVIFYDFLRGLEASWIWVQLRTGLARDGRDTGRTTALPPALCLPPPPAPGPMGNCAILASRQPVPRLPPSSSVSLVCELQVWQGLAWARAPQPKAWVSLGLFDQDQRVLSGRWRLPLRALPLDPSLSLGQLNGIPQAGQAELFLRLVNARDAAVQTLAEINPASVHEYQYPPPVSSTSSLEASFLTPAVGFADPPPRTEEPLSGVKDRDEGLGPHHSSDLPPVSF
B3: ODAD1 (protein, UniProt Q96M63 1-670)
chain: MEGERRAYSKEVHQRINKQLEEIRRLEEVRGDLQVQISAAQNQVKRLRDSQRLENMDRLLKGRAQVQAEIEELQEQTRALDKQIQEWETRIFTHSKNVRSPGFILDQKVKIRRRIRILENQLDRVTCHFDNQLVRNAALREELDLLRIDRNRYLNVDRKLKKEIHHLHHLVSTLILSSTSAYAVREEAKAKMGLLRERAEKEEAQSEMEAQVLQRQILHLEQLHHFLKLKNNDRQPDPDVLEKREKQAGEVAEGVWKTSQERLVLCYEDALNKLSQLMGESDPDLLVQKYLEIEERNFAEFNFINEQNLELEHVQEEIKEMQEALVSARASKDDQHLLQEQQQKVLQQRMDKVHSEAERLEARFQDVRGQLEKLKADIQLLFTKAHCDSSMIDDLLGVKTSMGDRDMGLFLSLIEKRLVELLTVQAFLHAQSFTSLADAALLVLGQSLEDLPKKMAPLQPPDTLEDPPGFEASDDYPMSREELLSQVEKLVELQEQAEAQRQKDLAAAAAKLDGTLSVDLASTQRAGSSTVLVPTRHPHAIPGSILSHKTSRDRGSLGHVTFGGLSSSTGHLPSHITHGDPNTGHVTFGSTSASSGGHVTFRPVSASSYLGSTGYVGSSRGGENTEGGVESGGTASDSSGGLGSSRDHVSSTGPASSTGPGSSTSKDSRG
B4: ODAD4 (protein, UniProt Q96NG3 1-672)
chain: MSDPEGETLRSTFPSYMAEGERLYLCGEFSKAAQSFSNALYLQDGDKNCLVARSKCFLKMGDLERSLKDAEASLQSDPAFCKGILQKAETLYTMGDFEFALVFYHRGYKLRPDREFRVGIQKAQEAINNSVGSPSSIKLENKGDLSFLSKQAENIKAQQKPQPMKHLLHPTKGEPKWKASLKSEKTVRQLLGELYVDKEYLEKLLLDEDLIKGTMKGGLTVEDLIMTGINYLDTHSNFWRQQKPIYARERDRKLMQEKWLRDHKRRPSQTAHYILKSLEDIDMLLTSGSAEGSLQKAEKVLKKVLEWNKEEVPNKDELVGNLYSCIGNAQIELGQMEAALQSHRKDLEIAKEYDLPDAKSRALDNIGRVFARVGKFQQAIDTWEEKIPLAKTTLEKTWLFHEIGRCYLELDQAWQAQNYGEKSQQCAEEEGDIEWQLNASVLVAQAQVKLRDFESAVNNFEKALERAKLVHNNEAQQAIISALDDANKGIIRELRKTNYVENLKEKSEGEASLYEDRIITREKDMRRVRDEPEKVVKQWDHSEDEKETDEDDEAFGEALQSPASGKQSVEAGKARSDLGAVAKGLSGELGTRSGETGRKLLEAGRRESREIYRRPSGELEQRLSGEFSRQEPEELKKLSEVGRREPEELGKTQFGEIGETKKTGNEMEKEYE
B5: CFAP57 (protein, UniProt Q96MR6 1-1250)
chain: MSAVVAQTLHVFGLRSHVANNIFYFDEQIIIFPSGNHCVKYNVDQKWQKFIPGSEKSQGMLALSISPNRRYLAISETVQEKPAITIYELSSIPCRKRKVLNNFDFQVQKFISMAFSPDSKYLLAQTSPPESNLVYWLWEKQKVMAIVRIDTQNNPVYQVSFSPQDNTQVCVTGNGMFKLLRFAEGTLKQTSFQRGEPQNYLAHTWVADDKIVVGTDTGKLFLFESGDQRWETSIMVKEPTNGSKSLDVIQESESLIEFPPVSSPLPSYEQMVAASSHSQMSMPQVFAIAAYSKGFACSAGPGRVLLFEKMEEKDFYRESREIRIPVDPQSNDPSQSDKQDVLCLCFSPSEETLVASTSKNQLYSITMSLTEISKGEPAHFEYLMYPLHSAPITGLATCIRKPLIATCSLDRSIRLWNYETNTLELFKEYQEEAYSISLHPSGHFIVVGFADKLRLMNLLIDDIRSFKEYSVRGCGECSFSNGGHLFAAVNGNVIHVYTTTSLENISSLKGHTGKIRSIVWNADDSKLISGGTDGAVYEWNLSTGKRETECVLKSCSYNCVTVSPDAKIIFAVGSDHTLKEIADSLILREISAFDVTYTAIVISHSGRMMFVGTSVGTIRAMKYPLPLQKEFNEYQAHAGPITKMLLTFDDQFLLTAAEDGCLFTWKVFDKDGRGIKREREVGFAEEVLVTKTDMEEKAQVMLELKTRVEELKMENEYQLRLKDMNYSEKIKELTDKFIQEMESLKTKNQVLRTEKEKQDVYHHEHIEDLLDKQSRELQDMECCNNQKLLLEYEKYQELQLKSQRMQEEYEKQLRDNDETKSQALEELTEFYEAKLQEKTTLLEEAQEDVRQQLREFEETKKQIEEDEDREIQDIKTKYEKKLRDEKESNLRLKGETGIMRKKFSSLQKEIEERTNDIETLKGEQMKLQGVIKSLEKDIQGLKREIQERDETIQDKEKRIYDLKKKNQELGKFKFVLDYKIKELKKQIEPRENEIRVMKEQIQEMEAELENFHKQNTQLELNITELWQKLRATDQEMRRERQKERDLEALVKRFKTDLHNCVAYIQEPRLLKEKVRGLFEKYVQRADMVEIAGLNTDLQQEYTRQREHLERNLATLKKKVVKEGELHRTDYVRIMQENVSLIKEINELRRELKFTRSQVYDLEAALKLTKKVRPQEVSETEPSRDMLSTAPTARLNEQEETGRIIEMQRLEIQRLRDQIQEQEQVTGFHTLAGVRLPSLSNSEVDLEVKTN
B6: ENKUR (protein, UniProt Q8TC29 1-256)
chain: MDPTCSSECIYNLIPSDLKEPPQPPRYISIFKATVKDDMQKAKTAMKTMGPAKVEVPSPKDFLKKHSKEKTLPPKKNFDRNVPKKPAVPLKTDHPVMGIQSGKNFINTNAADIIMGVAKKPKPIYVDKRTGDKHDLEPSGLVPKYINKKDYGVTPEYICKRNEEIKKAQEDYDRYIQENLKKAAMKRLSDEEREAVLQGLKKNWEEVHKEFQSLSVFIDSIPKKIRKQRLEEEMKQLEHDIGIIEKHKIIYIANNA

What follows are binders tested against DNAAF9 (human Shulin), endogenous in human airway epithelial cells (human (endogenous in HAECs)) (UniProt Q5TEA3) (assay: affinity purification with mass spectrometry).
In the case of B1, the binding is reported as “binds”.
With B2 the binding was “binds”.
B3 was tested, and the binding was “binds”.
B4 was tested, and the binding was “binds”.
In the case of B5, the binding is reported as “binds”.
In the case of B6, the binding is reported as “binds”.
